The results in this text go back to the supplement of paper PMC10735217.

This assay deals with HEK293A TEAD-LUC reporter. The assay is described as follows: TEAD-luciferase reporter activity (YAP activation), robust Z score vs plate; higher = stronger YAP/TEAD activation. The conditions noted are these: 24 h.

Where a name gives a salt, the structure may show the parent alone. The list shows a part of the results. Single values are uncertain here, since repeats match poorly.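 In a drug-repurposing library screen, luminescence reads luciferase driven by eight TEAD-binding elements, stably integrated into human kidney-derived cells. Compounds scoring over five robust Z scores above the plate mean are called hits.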

On to `O=C1C2C=C(c3ccccc3)CC1CCC2` (stereo not drawn), for which the TEAD-luciferase reporter activity by setting is: (compound concentration: 200 nM) inactive: -1.7; (compound concentration: 2 uM) inactive: -0.162; (compound concentration: 10 uM) inactive: -0.808.

`COc1nccc(-c2c(-c3ccc(F)cc3)ncn2C2CCNCC2)n1`: the TEAD-luciferase reporter activity is, setting by setting: (compound concentration: 200 nM) inactive: -2.09; (compound concentration: 2 uM) inactive: -0.729; (compound concentration: 10 uM) inactive: -0.761.

Take `COc1ccc([C@@H]2Cc3c(cccc3C(F)(F)F)N(CCN(C)C)C(=O)[C@@H]2OC(C)=O)cc1`: the TEAD-luciferase reporter activity is inactive: -1.14 (compound concentration: 200 nM), inactive: 0.715 (compound concentration: 2 uM) and inactive: 0.25 (compound concentration: 10 uM).

Turning to `CCOC(=O)CCc1nsnc1OCC(O)CNC(C)C` (stereo not drawn), the TEAD-luciferase reporter activity is inactive: -0.773 (compound concentration: 200 nM), inactive: -0.695 (compound concentration: 2 uM) and inactive: -0.997 (compound concentration: 10 uM).

Regarding `O=C(Cc1c(F)cccc1Cl)Nc1onc(-c2ccc(F)cc2)c1-c1ccncn1`, the TEAD-luciferase reporter activity runs as follows: (compound concentration: 200 nM) inactive: -1.18; (compound concentration: 2 uM) inactive: -1.18; (compound concentration: 10 uM) inactive: -1.

As to `CCCCN1CCC(NC(=O)c2c[nH]c3ncccc23)CC1`, the TEAD-luciferase reporter activity reads like this: (compound concentration: 200 nM) inactive: -1.11; (compound concentration: 2 uM) inactive: -2.46; (compound concentration: 10 uM) inactive: -2.17.

For `O=C1CCC[C@@H]2[C@H]3CCC[N+]4([O-])CCC[C@@H](CN12)[C@@H]34` (stereo partly drawn) [Oxymatrine], the TEAD-luciferase reporter activity is inactive: 0.607 (compound concentration: 200 nM), inactive: -2.12 (compound concentration: 2 uM) and inactive: 2.26 (compound concentration: 10 uM).

On to `Nc1cccc2c1CN(C1CCC(=O)NC1=O)C2=O` (stereo not drawn), for which the TEAD-luciferase reporter activity (compound concentration: 200 nM) was inactive: -1.69, the TEAD-luciferase reporter activity (compound concentration: 2 uM) is inactive: -0.243 and the TEAD-luciferase reporter activity (compound concentration: 10 uM) is inactive: 0.425.

Take `CC(C)(C)OC(=O)N[C@@H](Cc1ccccc1)[C@H](O)CNC[C@@H](O)[C@H](Cc1ccccc1)NC(=O)OC(C)(C)C`: the TEAD-luciferase reporter activity reads like this: (compound concentration: 200 nM) inactive: -1.15; (compound concentration: 2 uM) inactive: 0.036; (compound concentration: 10 uM) inactive: 1.44.

With `CN(C)[C@@H]1C(=O)C(C(N)=O)=C(O)C2(O)C(=O)C3=C(O)c4c(O)ccc(Cl)c4[C@@H](O)[C@H]3C[C@@H]12` (stereo partly drawn) [Demeclocycline], the TEAD-luciferase reporter activity is, setting by setting: (compound concentration: 200 nM) inactive: -0.844; (compound concentration: 10 uM) inactive: 1.05.

With `CN(C)[C@@H]1C(=O)C(C(N)=O)=C(O)C2(O)C(=O)C3=C(O)c4c(O)ccc(Cl)c4[C@@H](O)[C@H]3C[C@@H]12` (stereo partly drawn) [Demeclocycline (hydrochloride)], the TEAD-luciferase reporter activity (compound concentration: 2 uM) was inactive: -0.371.

Consider `COc1cc(C(=S)N2CCOCC2)cc(OC)c1OC` [tritiozine], for which the TEAD-luciferase reporter activity reads like this: (compound concentration: 200 nM) inactive: -0.0732; (compound concentration: 2 uM) inactive: -0.853; (compound concentration: 10 uM) inactive: 1.8.

As for `CC(C)Cc1ccc(-c2nc(-c3ccc(CN4CC(C(=O)O)C4)c(F)c3)no2)cc1` [S1p receptor agonist 1], the TEAD-luciferase reporter activity was inactive: 2.46 (compound concentration: 200 nM), inactive: -1.53 (compound concentration: 2 uM) and inactive: 1.44 (compound concentration: 10 uM).

Regarding `NS(=O)(=O)c1ccc(NC(CC(c2ccccc2)S(=O)(=O)O)S(=O)(=O)O)cc1` (stereo not drawn), the TEAD-luciferase reporter activity is inactive: -0.0857 (compound concentration: 200 nM), inactive: -0.339 (compound concentration: 2 uM) and inactive: 0.95 (compound concentration: 10 uM).

Consider `C/C=C(\C)C(=O)OC1[C@H](OC(C)=O)C2(CO)C(CC1(C)C)C1=CCC3C4(C)CCC(O[C@@H]5O[C@H](C(=O)O)[C@@H](O[C@@H]6O[C@H](CO)[C@@H](O)[C@H](O)[C@H]6O)[C@H](O)[C@H]5O[C@H]5O[C@H](CO)[C@@H](O)[C@H](O)[C@H]5O)[C@](C)(CO)C4CCC3(C)[C@]1(C)C[C@H]2O` (stereo partly drawn) [Aescin], for which the TEAD-luciferase reporter activity is inactive: -0.708 (compound concentration: 200 nM), inactive: -0.221 (compound concentration: 2 uM) and inactive: -0.967 (compound concentration: 10 uM).

For `C=CCNc1c(O)cc2c(O)c1C[C@@H](C)C[C@H](OC)[C@H](O)[C@@H](C)/C=C(\C)[C@H](OC(N)=O)[C@@H](OC)/C=C\C=C(/C)C(=O)N2` [retaspimycin], the TEAD-luciferase reporter activity is inactive: -1.83 (compound concentration: 200 nM), inactive: -1.08 (compound concentration: 2 uM) and inactive: -1.36 (compound concentration: 10 uM).

`O=C(O)c1ccccc1NC(=O)C12CC3CC(CC(C3)C1)C2`: the TEAD-luciferase reporter activity was inactive: -0.88 (compound concentration: 200 nM), inactive: 0.645 (compound concentration: 2 uM) and inactive: -0.643 (compound concentration: 10 uM).

Turning to `CCCCCCCCCCCC[N+](C)(C)CC(=O)O`, the TEAD-luciferase reporter activity (compound concentration: 200 nM) was inactive: 0.414, the TEAD-luciferase reporter activity (compound concentration: 2 uM) was inactive: -1.31 and the TEAD-luciferase reporter activity (compound concentration: 10 uM) is inactive: 1.41.

For `CCSc1nn(-c2ccc(OC)cc2)c(=O)c2c(N)scc12`, the TEAD-luciferase reporter activity runs as follows: (compound concentration: 200 nM) inactive: -0.576; (compound concentration: 2 uM) inactive: -0.473; (compound concentration: 10 uM) inactive: 0.715.

Turning to `C=C(C)[C@@H]1CC[C@]2(C(=O)O)CC[C@]3(C)[C@H](CCC4[C@@]5(C)CC[C@H](OC(=O)CCC(=O)O)C(C)(C)C5CC[C@]43C)C12` (stereo partly drawn), the TEAD-luciferase reporter activity is, setting by setting: (compound concentration: 200 nM) inactive: -1.09; (compound concentration: 2 uM) inactive: 0.524; (compound concentration: 10 uM) inactive: -0.457.

As for `[Cl][Fe]([Cl])[Cl]` [Ferric Chloride], the TEAD-luciferase reporter activity is, setting by setting: (compound concentration: 200 nM) inactive: -0.31; (compound concentration: 10 uM) inactive: 0.0493.

Take `CC(C)C[C@H](NC(=O)[C@@H](Cc1ccc2ccccc2c1)NC(=O)[C@H](Cc1ccc(O)cc1)NC(=O)[C@H](CO)NC(=O)[C@H](Cc1c[nH]c2ccccc12)NC(=O)[C@H](Cc1cnc[nH]1)NC(=O)[C@@H]1CCC(=O)N1)C(=O)N[C@@H](CCCNC(=N)N)C(=O)N1CCC[C@H]1C(=O)NCC(N)=O` [Nafarelin]: the TEAD-luciferase reporter activity is inactive: -0.548 (compound concentration: 200 nM), inactive: -1.1 (compound concentration: 2 uM) and inactive: 2.68 (compound concentration: 10 uM).

Consider `C[C@@H](O)[C@H](c1ccc2c(c1)OCO2)N1CCOCC1` [Filenadol], for which the TEAD-luciferase reporter activity was inactive: -1.22 (compound concentration: 200 nM), inactive: -1.35 (compound concentration: 2 uM) and inactive: -0.79 (compound concentration: 10 uM).

`O=[N+]([O-])c1cc2c(ccc3cc(Br)ccc32)o1`: the TEAD-luciferase reporter activity was inactive: -1.3 (compound concentration: 200 nM), inactive: -1.49 (compound concentration: 2 uM) and inactive: -1.11 (compound concentration: 10 uM).
